T1: Tho2 (residues 1-1207), subunit of THO* (S. cerevisiae) (UniProt P53552)
T1 sequence: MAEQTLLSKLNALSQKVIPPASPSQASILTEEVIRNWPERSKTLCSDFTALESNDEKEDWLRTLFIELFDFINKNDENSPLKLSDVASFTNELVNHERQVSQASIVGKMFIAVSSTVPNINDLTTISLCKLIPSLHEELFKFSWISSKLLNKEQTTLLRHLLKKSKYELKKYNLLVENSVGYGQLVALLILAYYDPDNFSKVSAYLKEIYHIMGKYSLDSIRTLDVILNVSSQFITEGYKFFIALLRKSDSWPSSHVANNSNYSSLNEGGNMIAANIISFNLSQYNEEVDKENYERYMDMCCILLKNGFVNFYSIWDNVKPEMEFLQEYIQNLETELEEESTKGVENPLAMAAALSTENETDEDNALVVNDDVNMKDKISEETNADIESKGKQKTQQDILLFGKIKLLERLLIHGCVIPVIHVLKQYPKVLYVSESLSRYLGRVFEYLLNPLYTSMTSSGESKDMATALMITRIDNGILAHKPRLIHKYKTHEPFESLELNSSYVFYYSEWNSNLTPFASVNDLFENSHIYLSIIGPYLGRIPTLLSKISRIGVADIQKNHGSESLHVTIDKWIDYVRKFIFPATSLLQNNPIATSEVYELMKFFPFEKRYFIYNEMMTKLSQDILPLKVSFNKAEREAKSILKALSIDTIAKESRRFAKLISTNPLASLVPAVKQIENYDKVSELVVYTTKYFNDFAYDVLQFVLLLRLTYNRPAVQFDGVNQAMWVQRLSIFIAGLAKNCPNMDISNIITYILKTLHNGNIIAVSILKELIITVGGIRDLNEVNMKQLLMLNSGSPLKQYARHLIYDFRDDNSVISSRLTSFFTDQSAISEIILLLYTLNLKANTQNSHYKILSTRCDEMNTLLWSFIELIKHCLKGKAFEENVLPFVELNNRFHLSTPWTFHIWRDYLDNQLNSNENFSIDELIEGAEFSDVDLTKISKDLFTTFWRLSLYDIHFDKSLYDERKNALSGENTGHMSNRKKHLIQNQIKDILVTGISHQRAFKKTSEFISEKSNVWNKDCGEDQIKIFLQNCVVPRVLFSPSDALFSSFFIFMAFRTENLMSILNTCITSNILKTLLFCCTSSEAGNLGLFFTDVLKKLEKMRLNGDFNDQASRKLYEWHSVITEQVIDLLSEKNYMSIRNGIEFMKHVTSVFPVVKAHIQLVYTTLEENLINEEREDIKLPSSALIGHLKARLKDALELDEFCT

B1: Mft1 (residues 1-256), subunit of THO* (domain or fragment, UniProt P33441 1-256)
chain: MPLSQKQIDQVRTKVHYSEVDTPFNKYLDILGKVTKLTGSIINGTLSNDDSKIEKLTEQNISQLKESAHLRFLDLQSSIDTKKVADENWETCQQETLAKLENLKDKLPDIKSIHSKLLLRIGKLQGLYDSVQVINREVEGLSEGRTSLVVTRAEWEKELGTDLVKFLIEKNYLKLVDPGLKKDSSEERYRIYDDFSKGPKELESINASMKSDIENVRQEVSSYKEKWLRDAEIFGKITSIFKEELLKRDGLLNEAE
B2: Hpr1 (residues 1-603), subunit of THO* (domain or fragment, UniProt P17629 1-603)
chain: MSNTEELIQNSIGFLQKTFKALPVSFDSIRHEPLPSSMLHASVLNFEWEPLEKNISAIHDRDSLIDIILKRFIIDSMTNAIEDEEENNLEKGLLNSCIGLDFVYNSRFNRSNPASWGNTFFELFSTIIDLLNSPSTFLKFWPYAESRIEWFKMNTSVEPVSLGESNLISYKQPLYEKLRHWNDILAKLENNDILNTVKHYNMKYKLENFLSELLPINEESNFNRSASISALQESDNEWNRSARERESNRSSDVIFAADYNFVFYHLIICPIEFAFSDLEYKNDVDRSLSPLLDAILEIEENFYSKIKMNNRTRYSLEEALNTEYYANYDVMTPKLPVYMKHSNAMKMDRNEFWANLQNIKESDDYTLRPTIMDISLSNTTCLYKQLTQEDDDYYRKQFILQLCFTTNLIRNLISSDETRNFYKSCYLRENPLSDIDFENLDEVNKKRGLNLCSYICDNRVLKFYKIKDPDFYRVIRKLMSSDEKFTTAKIDGFKEFQNFRISKEKIPPPAFDETFKKFTFIKMGNKLINNVWKIPTGLDKIEQEVKKPEGVYEAAQAKWESKISSETSGGEAKDEIIRQWQTLRFLRSRYLFDFDKVNEKTGV
B3: Thp2 (residues 1-261), subunit of THO* (protein, UniProt O13539 1-261)
chain: MTKEEGRTYFESLCEEEQSLQESQTHLLNILDILSVLADPRSSDDLLTESLKKLPDLHRELINSSIRLRYDKYQTREAQLLEDTKTGRDVAAGVQNPKSISEYYSTFEHLNRDTLRYINLLKRLSVDLAKQVEVSDPSVTVYEMDKWVPSEKLQGILEQYCAPDTDIRGVDAQIKNYLDQIKMARAKFGLENKYSLKERLSTLTKELNHWRKEWDDIEMLMFGDDAHSMKKMIQKIDSLKSEINAPSESYPVDKEGDIVLE

No constants are given. Whether binding was seen depends on the method and setting. Some entries that bind do so weakly or less than the wild type.

For the experiment, the target named is T1, Tho2 (residues 1-1207), subunit of THO* (S. cerevisiae). The experiment is described as follows: co-purification of co-expressed subunits (Ni2+-affinity, mono Q, Superose 6 size exclusion); THO* subunits co-expressed in High-Five cells; Tho2 and Tex1 with N-terminal His tags, Hpr1, Mft1 and Thp2 untagged; 4 °C; SDS-PAGE with Coomassie stain of the purified complex.
B1: the binding entry is “binds”. With B2, the binding result is listed as “binds”. For the molecule B3, the binding result was “binds”.
